Results are given in words; binding and its absence hold for the method and conditions named. Binding calls can cover weak binding; strength is not graded here.
What follows are binders tested against human TREM2 (human) (assay: antibody competition assay).

binding | Binder
binds | 10E3 (antibody, V domains shown) VH: EVQLVQSGAEVKKPGESLMISCKGSGYSFTNYWIGWVRQMPGKGLEWMGIIYPGDSDTRYSPSFQGQVTISADKSISTAYLQWSSLKASDTAMYFCARRRQGIWGDALDIWGQGTLVTVSS VL: EIVMTQSPATLSVSPGERATLSCRASQSVSSNLAWFQQKPGQAPRLLIYGASTRATGIPARFSVSGSGTEFTLTISSLQSEDFAFYYCLQDNNWPPTFGPGTKVDIK
binds | 13E7 (antibody, V domains shown) VH: EVQLVQSGAEVKKPGESLMISCKGSGYSFTSYWIGWVRQMPGKGLEWMGIIYPGDSDTRYSPSFQGQVTISADKSISTAYLQWSSLKASDTAMYFCARRRQGIWGDALDFWGQGTLVTVSS VL: EIVMTQSPATLSVSPGERATLSCRASQSVSSNLAWFQQKPGQAPRLLIYGASTRATGIPARFSVSGSGTEFTLTISSLQSEDFAVYYCLQDNNWPPTFGPGTKVDIK
binds | 32E3 (antibody, V domains shown) VH: EVQLVQSGAEVKKPGESLKISCKGSGYSFTSYWIGWVRQMPGKGLEWMGIIYPGDSDTRYSPSFQGQVTISADKSISTAYLQWSTLKASDTAIYYCARHDIIPAAPGAFDIWGQGTMVTVSS VL: EFVLTQSPGTLSLSPGERATLSCRASQIISSNYLAWYQQKPGQAPRLLIYSASSRATGIPDRFSGSGSGTDFTLTISRLEPEDFAVYYCQQFDSSPITFGRGTRLDIK
binds | 5E3 (antibody, V domains shown) VH: QVQLVQSGAEVKKPGASVKVSCKASGYTFTGYYIHWVRQAPGLGLEWMGWINPYSGGTTSAQKFQGRVTMTRDTSISSAYMELSRLRSDDTAVYYCARDGGYLALYGTDVWGQGTTVTVSS VL: DIQMTQSPSSLSASVGDRVTITCRASQGISNYLAWFQQKPGKAPKSLIYAASSLQSGVPSKFSGSGSGTDFTLTISSLQPEDFATYYCQQYSTYPFTFGPGTKVDIK
binds | 16B8 (antibody, V domains shown) VH: QVQLVQSGAEVKKPGASVKVSCKASGYTFTNYGISWVRQAPGQGLEWMGWISAYNGNTNYAQKLQGRVTMTTDTSTSTVYMELRSLRSDDTAVYYCARRGYSYGSFDYWGQGTLVTVSS VL: DIQMTQSPSSVSASVGDRVTVTCRASQDINSWLAWYQQKPGKAPKLLIYAASSLQTGVPSRFSGSGSGTDFTLTISSLQPEDFATYSCQQSNSFPITFGQGTRLEIK
binds | 4C5 (antibody, V domains shown) VH: EVQLVQSGAEVKKPGESLKISCKGSGHSFTNYWIAWVRQMPGKGLEWMGIIYPGDSDTRYSPSFQGQVTISADKSISTAYLQWSSLKASDTAVYFCARQRTFYYDSSGYFDYWGQGTLVTVSS VL: DIQMTQSPSSVSASVGDRVTITCRASQGISNWLAWYQQKPGKAPKLLIYAASSLQVGVPLRFSGSGSGTDFTLTISSLQPEDFATYYCQQADSFPRNFGQGTKLEIK
binds | 6E7 (antibody, V domains shown) VH: EVQLVQSGAEVKKPGESLKISCKGSGYSFTSYWIAWVRQMPGKGLEWMGIIYPGDSDTRYSPSFQGQVTISADKSISTAYLQWSSLKASDTAMYFCARQRTFYYDSSDYFDYWGQGTLVTVSS VL: DIQMTQSPSSVSASVGDRVTITCRASQGISSWLAWYQQKPGKAPKLLIYAASSLQNGVPSRFSGSGSGTDFTLTISSLQPEDFATYFCQQADSFPRTFGQGTKLEIK
binds | 4G10 (antibody, V domains shown) VH: EVQLVQSGAEVKKPGESLKISCKGSGYSFPSYWIAWVRQMPGKGLEWMGIIYPGDSDTRYSPSFQGQVTISADKSISTAFLKWSSLKASDTAMYFCARQGIEVTGTGGLDVWGQGTTVTVSS VL: DIQMTQSPSSLSASVGDRVTITCRASQGIRNDLGWYQQKPGNAPKRLIYAASSLPSGVPSRFSGSGSGPEFTLTISSLQPEDFATYYCLQHNSYPWTFGQGTKVEIT

Binder | binding
26C10 (antibody, V domains shown) VH: EVQLVESGGALVQPGGSLRLSCAASGFTFSSFGMSWVRQAPGKGLEWVSYISSSSFTIYYADSVKGRFTISRDNAKNSFYLQMNSLRDEDTAVYFCVREGGITMVRGVSSYGMDVWGQGTTVTVSS VL: SFELTQPPSVSVSPGQTASITCSGDKLGDKYVCWYQQKPGQSPMLVIYQDTKRPSGIPERFSGSNSGNTATLTISGTQAMDEADYYCQAWDSSTVVFGGGTKLTVL | binds
